Laboratory results: the supplement of paper PMC12823440, “Inhibitors supercharge kinase turnover through native proteolytic circuits” (Nature, 2025)
Structures can show the parent of a compound that is named as a salt. This is one part of the list. The calls rarely recur for the same compound in another form.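 Kinases were expressed as nanoluciferase fusions in K562 cells and luminescence was read every 4 h between 2 and 18 h as percent of control, DMSO set to 100% and a positive control to 0%. A time point counts as decreased when the signal drops significantly (2 sigma). The hit call is the authors' own, does not follow from the count of time points alone, and its rule is not shown.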

Protein sequences, listed by entry. Tags and fused reporters are not part of them. Lines headed by an entry give the natural chain unless they say otherwise; changes in a name come on top.
UniProt Q9Y616: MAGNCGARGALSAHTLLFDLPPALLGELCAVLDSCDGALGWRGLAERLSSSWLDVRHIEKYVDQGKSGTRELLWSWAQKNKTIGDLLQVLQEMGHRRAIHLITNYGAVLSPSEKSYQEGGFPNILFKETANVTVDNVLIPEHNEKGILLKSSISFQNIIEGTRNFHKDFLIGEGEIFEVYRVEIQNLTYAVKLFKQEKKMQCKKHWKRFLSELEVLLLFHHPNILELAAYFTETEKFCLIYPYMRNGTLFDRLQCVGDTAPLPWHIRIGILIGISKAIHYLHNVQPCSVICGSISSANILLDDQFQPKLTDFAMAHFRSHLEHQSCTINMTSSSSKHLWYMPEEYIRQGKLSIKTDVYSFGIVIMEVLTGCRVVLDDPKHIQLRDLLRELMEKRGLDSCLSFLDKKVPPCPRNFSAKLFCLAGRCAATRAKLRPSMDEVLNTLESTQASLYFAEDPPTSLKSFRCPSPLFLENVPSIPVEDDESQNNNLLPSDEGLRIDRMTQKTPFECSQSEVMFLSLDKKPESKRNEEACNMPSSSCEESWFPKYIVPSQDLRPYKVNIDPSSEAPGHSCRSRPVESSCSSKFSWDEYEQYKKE
UniProt P23458: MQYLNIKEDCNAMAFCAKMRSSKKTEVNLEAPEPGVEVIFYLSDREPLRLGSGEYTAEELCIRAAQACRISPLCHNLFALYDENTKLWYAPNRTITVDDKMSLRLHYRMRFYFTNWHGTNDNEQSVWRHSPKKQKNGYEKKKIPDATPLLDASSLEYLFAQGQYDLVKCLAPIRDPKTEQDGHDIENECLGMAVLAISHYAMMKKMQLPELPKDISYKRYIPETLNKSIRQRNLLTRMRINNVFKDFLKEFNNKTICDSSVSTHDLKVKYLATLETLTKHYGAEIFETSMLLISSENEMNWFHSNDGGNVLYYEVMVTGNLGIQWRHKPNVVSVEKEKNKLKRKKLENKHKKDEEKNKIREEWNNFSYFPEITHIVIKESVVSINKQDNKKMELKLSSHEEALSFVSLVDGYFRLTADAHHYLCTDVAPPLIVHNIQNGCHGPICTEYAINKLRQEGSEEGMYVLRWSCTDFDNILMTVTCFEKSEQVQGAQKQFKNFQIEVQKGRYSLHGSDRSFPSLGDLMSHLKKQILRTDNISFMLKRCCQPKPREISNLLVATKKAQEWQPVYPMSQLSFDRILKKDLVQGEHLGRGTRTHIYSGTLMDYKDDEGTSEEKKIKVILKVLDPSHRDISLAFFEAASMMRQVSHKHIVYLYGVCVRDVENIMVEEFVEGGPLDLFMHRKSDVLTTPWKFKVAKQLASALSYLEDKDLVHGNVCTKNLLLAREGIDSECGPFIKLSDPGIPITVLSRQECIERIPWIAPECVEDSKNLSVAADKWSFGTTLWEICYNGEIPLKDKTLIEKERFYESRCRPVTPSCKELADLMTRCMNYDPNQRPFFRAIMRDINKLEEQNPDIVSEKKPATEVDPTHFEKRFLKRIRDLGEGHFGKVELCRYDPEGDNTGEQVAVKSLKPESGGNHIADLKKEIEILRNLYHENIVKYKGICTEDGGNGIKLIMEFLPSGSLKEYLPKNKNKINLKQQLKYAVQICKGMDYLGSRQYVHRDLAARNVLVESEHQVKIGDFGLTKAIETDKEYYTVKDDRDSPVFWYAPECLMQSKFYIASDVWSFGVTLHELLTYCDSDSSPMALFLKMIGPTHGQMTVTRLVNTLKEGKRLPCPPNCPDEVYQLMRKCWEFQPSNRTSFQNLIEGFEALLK
UniProt P06239: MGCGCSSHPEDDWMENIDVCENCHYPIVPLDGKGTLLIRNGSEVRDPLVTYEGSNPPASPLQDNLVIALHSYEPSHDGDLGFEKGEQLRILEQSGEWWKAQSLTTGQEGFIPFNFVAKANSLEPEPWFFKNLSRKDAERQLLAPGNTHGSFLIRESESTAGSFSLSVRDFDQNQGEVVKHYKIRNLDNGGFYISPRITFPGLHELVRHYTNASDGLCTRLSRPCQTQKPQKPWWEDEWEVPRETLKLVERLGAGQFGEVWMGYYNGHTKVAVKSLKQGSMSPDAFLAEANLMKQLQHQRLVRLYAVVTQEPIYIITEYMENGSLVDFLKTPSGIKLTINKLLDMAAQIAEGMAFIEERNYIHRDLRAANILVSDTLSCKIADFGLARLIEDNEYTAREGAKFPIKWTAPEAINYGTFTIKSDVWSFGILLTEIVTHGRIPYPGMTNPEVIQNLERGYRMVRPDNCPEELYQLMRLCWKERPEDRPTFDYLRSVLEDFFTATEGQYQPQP
UniProt P53667: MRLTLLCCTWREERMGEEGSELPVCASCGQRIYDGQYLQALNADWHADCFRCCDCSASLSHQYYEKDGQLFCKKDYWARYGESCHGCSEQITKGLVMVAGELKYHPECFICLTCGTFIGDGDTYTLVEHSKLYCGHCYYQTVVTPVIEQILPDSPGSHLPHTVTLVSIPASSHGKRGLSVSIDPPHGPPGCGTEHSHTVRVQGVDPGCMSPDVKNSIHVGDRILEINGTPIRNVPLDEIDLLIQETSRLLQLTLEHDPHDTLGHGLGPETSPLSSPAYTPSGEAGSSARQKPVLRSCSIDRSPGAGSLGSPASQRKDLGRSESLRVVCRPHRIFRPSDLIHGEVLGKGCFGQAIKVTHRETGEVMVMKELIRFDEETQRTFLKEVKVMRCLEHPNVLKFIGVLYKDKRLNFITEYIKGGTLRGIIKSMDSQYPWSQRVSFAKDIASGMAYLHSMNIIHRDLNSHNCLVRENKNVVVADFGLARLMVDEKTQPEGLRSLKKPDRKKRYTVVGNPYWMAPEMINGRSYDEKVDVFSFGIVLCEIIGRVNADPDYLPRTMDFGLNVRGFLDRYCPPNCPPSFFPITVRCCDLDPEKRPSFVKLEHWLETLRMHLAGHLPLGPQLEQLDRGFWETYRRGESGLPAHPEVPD
UniProt P53671: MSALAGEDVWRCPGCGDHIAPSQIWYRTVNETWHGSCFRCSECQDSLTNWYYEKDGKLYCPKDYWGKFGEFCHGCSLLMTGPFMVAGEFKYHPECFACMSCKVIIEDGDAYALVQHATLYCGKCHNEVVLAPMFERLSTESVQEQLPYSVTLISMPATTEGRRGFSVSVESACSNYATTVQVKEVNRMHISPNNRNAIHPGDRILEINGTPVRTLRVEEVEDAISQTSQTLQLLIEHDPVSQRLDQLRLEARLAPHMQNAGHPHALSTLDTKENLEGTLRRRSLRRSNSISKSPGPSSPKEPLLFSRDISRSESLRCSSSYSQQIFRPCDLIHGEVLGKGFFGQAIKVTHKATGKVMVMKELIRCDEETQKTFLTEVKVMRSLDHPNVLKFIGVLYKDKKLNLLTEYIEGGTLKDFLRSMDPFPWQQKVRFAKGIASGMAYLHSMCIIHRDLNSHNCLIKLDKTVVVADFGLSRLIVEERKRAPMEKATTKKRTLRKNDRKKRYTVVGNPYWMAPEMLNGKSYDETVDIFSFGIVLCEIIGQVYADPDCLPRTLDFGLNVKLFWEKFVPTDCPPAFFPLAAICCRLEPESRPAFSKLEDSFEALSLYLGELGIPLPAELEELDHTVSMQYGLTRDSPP
UniProt Q8IWU2: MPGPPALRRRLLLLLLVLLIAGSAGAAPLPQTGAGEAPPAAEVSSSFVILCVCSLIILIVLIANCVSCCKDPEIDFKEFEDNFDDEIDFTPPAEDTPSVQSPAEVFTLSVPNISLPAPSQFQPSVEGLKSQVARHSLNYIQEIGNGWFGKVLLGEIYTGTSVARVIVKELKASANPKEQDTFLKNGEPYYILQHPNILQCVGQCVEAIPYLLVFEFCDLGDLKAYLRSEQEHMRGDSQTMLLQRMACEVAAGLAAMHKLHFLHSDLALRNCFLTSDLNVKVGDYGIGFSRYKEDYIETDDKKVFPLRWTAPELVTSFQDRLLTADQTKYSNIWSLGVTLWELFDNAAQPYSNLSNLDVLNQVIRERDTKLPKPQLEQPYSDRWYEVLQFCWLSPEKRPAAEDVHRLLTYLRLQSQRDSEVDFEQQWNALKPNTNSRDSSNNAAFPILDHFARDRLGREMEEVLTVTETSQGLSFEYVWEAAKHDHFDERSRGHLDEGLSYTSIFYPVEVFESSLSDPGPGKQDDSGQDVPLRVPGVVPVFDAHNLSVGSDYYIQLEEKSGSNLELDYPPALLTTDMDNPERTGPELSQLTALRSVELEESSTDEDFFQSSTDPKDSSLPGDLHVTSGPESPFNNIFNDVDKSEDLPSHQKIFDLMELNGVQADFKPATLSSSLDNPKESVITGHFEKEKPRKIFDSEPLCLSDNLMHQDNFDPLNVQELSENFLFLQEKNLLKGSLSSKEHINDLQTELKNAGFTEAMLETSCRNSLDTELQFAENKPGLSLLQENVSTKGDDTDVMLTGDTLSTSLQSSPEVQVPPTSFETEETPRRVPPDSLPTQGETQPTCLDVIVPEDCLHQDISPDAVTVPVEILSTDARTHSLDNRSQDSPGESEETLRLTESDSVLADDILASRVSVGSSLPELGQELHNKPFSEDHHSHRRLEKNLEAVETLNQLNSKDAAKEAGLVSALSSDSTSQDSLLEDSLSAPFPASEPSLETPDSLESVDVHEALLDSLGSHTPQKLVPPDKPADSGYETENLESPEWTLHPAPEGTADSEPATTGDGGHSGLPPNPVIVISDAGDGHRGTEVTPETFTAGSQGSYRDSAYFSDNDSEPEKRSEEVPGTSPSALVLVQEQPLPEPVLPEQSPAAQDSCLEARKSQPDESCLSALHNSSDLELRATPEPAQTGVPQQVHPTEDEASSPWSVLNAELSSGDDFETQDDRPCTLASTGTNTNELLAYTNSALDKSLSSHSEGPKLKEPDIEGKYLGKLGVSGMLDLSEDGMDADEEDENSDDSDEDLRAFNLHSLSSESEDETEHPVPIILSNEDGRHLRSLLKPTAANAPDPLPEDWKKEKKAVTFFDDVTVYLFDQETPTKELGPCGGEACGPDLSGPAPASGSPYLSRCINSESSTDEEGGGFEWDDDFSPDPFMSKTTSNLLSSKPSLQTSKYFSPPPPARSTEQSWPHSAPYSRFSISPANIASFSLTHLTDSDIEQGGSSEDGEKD
UniProt P07948: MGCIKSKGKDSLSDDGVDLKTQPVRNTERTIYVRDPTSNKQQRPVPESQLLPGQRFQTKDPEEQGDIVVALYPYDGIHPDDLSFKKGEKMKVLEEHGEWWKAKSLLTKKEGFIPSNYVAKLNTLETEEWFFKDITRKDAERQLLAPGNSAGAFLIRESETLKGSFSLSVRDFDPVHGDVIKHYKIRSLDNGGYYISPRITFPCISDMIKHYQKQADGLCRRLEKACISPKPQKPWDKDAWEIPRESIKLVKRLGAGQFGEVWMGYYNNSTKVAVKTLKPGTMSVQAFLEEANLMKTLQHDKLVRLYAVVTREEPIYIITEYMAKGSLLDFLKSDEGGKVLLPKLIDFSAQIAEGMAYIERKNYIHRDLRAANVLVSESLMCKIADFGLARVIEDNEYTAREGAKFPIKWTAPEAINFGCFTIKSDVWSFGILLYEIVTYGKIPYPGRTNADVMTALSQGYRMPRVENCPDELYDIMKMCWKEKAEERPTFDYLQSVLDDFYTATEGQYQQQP
UniProt Q12851: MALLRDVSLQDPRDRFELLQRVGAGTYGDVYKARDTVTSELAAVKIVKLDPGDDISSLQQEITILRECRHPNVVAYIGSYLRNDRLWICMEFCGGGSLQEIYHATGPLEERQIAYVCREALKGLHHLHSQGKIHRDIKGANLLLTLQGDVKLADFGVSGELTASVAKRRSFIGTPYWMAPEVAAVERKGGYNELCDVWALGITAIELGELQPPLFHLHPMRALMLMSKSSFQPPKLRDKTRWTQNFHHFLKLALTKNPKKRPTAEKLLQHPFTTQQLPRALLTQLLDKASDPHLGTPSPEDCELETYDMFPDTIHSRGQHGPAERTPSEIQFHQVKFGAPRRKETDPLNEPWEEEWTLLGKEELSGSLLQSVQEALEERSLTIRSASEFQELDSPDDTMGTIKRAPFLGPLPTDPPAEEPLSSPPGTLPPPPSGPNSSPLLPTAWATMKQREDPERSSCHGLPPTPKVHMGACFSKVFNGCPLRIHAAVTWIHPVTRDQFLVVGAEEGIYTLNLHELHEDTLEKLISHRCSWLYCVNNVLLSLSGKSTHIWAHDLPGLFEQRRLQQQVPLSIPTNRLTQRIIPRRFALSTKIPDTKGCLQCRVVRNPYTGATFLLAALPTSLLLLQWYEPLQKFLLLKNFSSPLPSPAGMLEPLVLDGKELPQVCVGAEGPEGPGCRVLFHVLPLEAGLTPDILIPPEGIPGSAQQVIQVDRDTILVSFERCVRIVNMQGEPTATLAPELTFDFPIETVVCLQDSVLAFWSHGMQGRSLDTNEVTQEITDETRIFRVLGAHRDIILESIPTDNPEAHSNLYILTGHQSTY

Columns and labels:
Test in all cases: kinase-Nluc reporter destabilization hit call (1 = scored as downregulated) (binary); higher = compound decreases kinase abundance
Details in all cases: K562; 2-18 h
IRAK3 = IRAK3 (UniProt Q9Y616)
JAK1 = JAK1 (UniProt P23458)
LCK = LCK (UniProt P06239)
LIMK1 = LIMK1 (UniProt P53667)
LIMK2 = LIMK2 (UniProt P53671)
LMTK2 = LMTK2 (UniProt Q8IWU2)
LYN = LYN (UniProt P07948)
MAP2K1 = MAP2K1 (UniProt Q02750)
MAP2K2 = MAP2K2 (UniProt P36507)
MAP4K2 = MAP4K2 (UniProt Q12851)

Measured: kinase-Nluc reporter destabilization hit call

C#CCN(C)C(=O)CCNc1nc(N2CCN(C(=O)C=C)CC2)c2cc(Cl)c(-c3c(O)cccc3F)c(F)c2n1 [ARS-1323-alkyne] (2.5 µM)
inactive: IRAK3 = 0 | JAK1 = 0 | LCK 0 | LIMK1 = 0 | LIMK2 = 0 | LMTK2 = 0 | LYN 0 | MAP2K1 = 0 | MAP2K2 = 0 | MAP4K2 = 0

CC(c1ccc(-c2cnc3c(-c4ccc(S(N)(=O)=O)c5ccccc45)cnn3c2)cc1)N1CCCC1 (stereo not given) (2.5 µM)
inactive: IRAK3 = 0 | JAK1 = 0 | LCK 0 | LIMK1 = 0 | LIMK2 = 0 | LMTK2 = 0 | LYN 0 | MAP2K1 = 0 | MAP2K2 = 0 | MAP4K2 = 0

C=CC(=O)Nc1cccc(C)c1Nc1ncc2cc(-c3c(Cl)c(OC)cc(OC)c3Cl)ccc2n1 (2.5 µM)
inactive: IRAK3 = 0 | JAK1 = 0 | LCK 0 | LIMK1 = 0 | LIMK2 = 0 | LMTK2 = 0 | LYN 0 | MAP2K1 = 0 | MAP2K2 = 0 | MAP4K2 = 0

CC[C@@]1(c2ccccc2)C2=C(CC(C)(C)CC2=O)Nc2[nH]ncc21 (10 µM)
inactive: IRAK3 = 0 | JAK1 = 0 | LCK 0 | LIMK1 = 0 | LIMK2 = 0 | LMTK2 = 0 | LYN 0 | MAP2K1 = 0 | MAP2K2 = 0 | MAP4K2 = 0

O=C(O)c1cc(O)ccc1O [2,5-Dihydroxybenzoic acid] (10 µM)
inactive: IRAK3 = 0 | JAK1 = 0 | LCK 0 | LIMK1 = 0 | LIMK2 = 0 | LMTK2 = 0 | LYN 0 | MAP2K1 = 0 | MAP2K2 = 0 | MAP4K2 = 0

Cc1cc(NC(=O)c2cccc(NC(=O)/C=C/CN(C)C)c2)ccc1Nc1nccc(-c2cccnc2)n1 (10 µM)
inactive: IRAK3 = 0 | JAK1 = 0 | LCK 0 | LIMK1 = 0 | LIMK2 = 0 | LMTK2 = 0 | LYN 0 | MAP2K1 = 0 | MAP2K2 = 0 | MAP4K2 = 0

Nc1ncnc2c1ncn2[C@@H]1O[C@H](CO)C[C@H]1O [Cordycepin] (10 µM)
inactive: IRAK3 = 0 | JAK1 = 0 | LCK 0 | LIMK1 = 0 | LIMK2 = 0 | LMTK2 = 0 | LYN 0 | MAP2K1 = 0 | MAP2K2 = 0 | MAP4K2 = 0

Cn1c(=O)c(F)c(Nc2ccc(I)cc2F)c2c(=O)n(C[C@@H](O)CO)cnc21 (10 µM)
inactive: IRAK3 = 0 | JAK1 = 0 | LCK 0 | LIMK1 = 0 | LIMK2 = 0 | LMTK2 = 0 | LYN 0 | MAP2K1 = 0 | MAP2K2 = 0 | MAP4K2 = 0

N[C@H](Cc1c[nH]c2ccccc12)C(=O)N/N=C/c1ccc2nccnc2c1 [Rhosin (hydrochloride)] (10 µM)
inactive: IRAK3 = 0 | JAK1 = 0 | LCK 0 | LIMK1 = 0 | LIMK2 = 0 | LMTK2 = 0 | LYN 0 | MAP2K1 = 0 | MAP2K2 = 0 | MAP4K2 = 0

COc1ccc(Cn2cc(C(=O)N=Nc3c(O)[nH]c4c(C)cccc34)nn2)cc1 [MARK4 inhibitor 1] (10 µM)
inactive: IRAK3 = 0 | JAK1 = 0 | LCK 0 | LIMK1 = 0 | LIMK2 = 0 | LMTK2 = 0 | LYN 0 | MAP2K1 = 0 | MAP2K2 = 0 | MAP4K2 = 0

COCCO[C@@H]1[C@H](O)[C@@H](CO)O[C@H]1n1cnc2c(=O)[nH]c(N)nc21 [2′-O-(2-Methoxyethyl)guanosine] (10 µM)
inactive: IRAK3 = 0 | JAK1 = 0 | LCK 0 | LIMK1 = 0 | LIMK2 = 0 | LMTK2 = 0 | LYN 0 | MAP2K1 = 0 | MAP2K2 = 0 | MAP4K2 = 0

Cc1ccc(Oc2nc3cc(-c4ccc5c(ccn5C)c4)c(Cl)cc3[nH]2)cc1C(=O)O (10 µM)
inactive: IRAK3 = 0 | JAK1 = 0 | LCK 0 | LIMK1 = 0 | LIMK2 = 0 | LMTK2 = 0 | LYN 0 | MAP2K1 = 0 | MAP2K2 = 0 | MAP4K2 = 0

C=CC(=O)Nc1cc2c(Nc3ccc(OCc4ccccn4)c(Cl)c3)ncnc2cc1OCCN1CCOCC1 (10 µM)
inactive: IRAK3 = 0 | JAK1 = 0 | LCK 0 | LIMK1 = 0 | LIMK2 = 0 | LMTK2 = 0 | LYN 0 | MAP2K1 = 0 | MAP2K2 = 0 | MAP4K2 = 0

Fc1ccc(-c2nc(-c3ccccc3F)[nH]c2-c2ccncc2)cc1 (2.5 µM)
inactive: IRAK3 = 0 | JAK1 = 0 | LCK 0 | LIMK1 = 0 | LIMK2 = 0 | LMTK2 = 0 | LYN 0 | MAP2K1 = 0 | MAP2K2 = 0 | MAP4K2 = 0

N#Cc1cccc(-c2c[nH]c3ncnc(N4CCOCC4)c23)c1 (10 µM)
inactive: IRAK3 = 0 | JAK1 = 0 | LCK 0 | LIMK1 = 0 | LIMK2 = 0 | LMTK2 = 0 | LYN 0 | MAP2K1 = 0 | MAP2K2 = 0 | MAP4K2 = 0

c1cn2cc(-c3ccc4cn[nH]c4c3)nc(Nc3ccc(N4CCOCC4)cc3)c2n1 [Entospletinib] (10 µM)
inactive: IRAK3 = 0 | JAK1 = 0 | LCK 0 | LIMK1 = 0 | LIMK2 = 0 | LMTK2 = 0 | LYN 0 | MAP2K1 = 0 | MAP2K2 = 0 | MAP4K2 = 0

CN(C)CCN(Cc1ccc(Cl)cc1)c1ccccn1 [Chloropyramine hydrochloride] (10 µM)
inactive: IRAK3 = 0 | JAK1 = 0 | LCK 0 | LIMK1 = 0 | LIMK2 = 0 | LMTK2 = 0 | LYN 0 | MAP2K1 = 0 | MAP2K2 = 0 | MAP4K2 = 0

COCCOc1cnc(Sc2cc(C)c(-c3csc(NC(=O)c4ccncc4)n3)c(C)c2)cn1 [T-1101 (tosylate)] (2.5 µM)
inactive: IRAK3 = 0 | JAK1 = 0 | LCK 0 | LIMK1 = 0 | LIMK2 = 0 | LMTK2 = 0 | LYN 0 | MAP2K1 = 0 | MAP2K2 = 0 | MAP4K2 = 0

Nc1ncc(-c2cccc(N3CCNCC3)c2)cc1C(=O)Nc1ccncc1 [PKC-iota inhibitor 1] (10 µM)
inactive: IRAK3 = 0 | JAK1 = 0 | LCK 0 | LIMK1 = 0 | LIMK2 = 0 | LMTK2 = 0 | LYN 0 | MAP2K1 = 0 | MAP2K2 = 0 | MAP4K2 = 0

CCc1cc(O)c(F)cc1-c1ccc2c(-c3nc4c([nH]3)CN(C3CCN(C)CC3)CC4)n[nH]c2c1 [JAK-IN-5 (hydrochloride)] (2 µM)
inactive: IRAK3 = 0 | JAK1 = 0 | LCK 0 | LIMK1 = 0 | LIMK2 = 0 | LMTK2 = 0 | LYN 0 | MAP2K1 = 0 | MAP2K2 = 0 | MAP4K2 = 0

Cn1cnc(-c2cc3nccc(Oc4ccc(NC(=S)NC(=O)Cc5ccccc5)cc4F)c3s2)c1 [MGCD-265 analog] (10 µM)
inactive: IRAK3 = 0 | JAK1 = 0 | LCK 0 | LIMK1 = 0 | LIMK2 = 0 | LMTK2 = 0 | LYN 0 | MAP2K1 = 0 | MAP2K2 = 0 | MAP4K2 = 0

COC1(c2sc3c(N4CCOCC4)nc(-c4cnc(N)nc4)nc3c2C)COC1 (2.5 µM)
inactive: IRAK3 = 0 | JAK1 = 0 | LCK 0 | LIMK1 = 0 | LIMK2 = 0 | LMTK2 = 0 | LYN 0 | MAP2K1 = 0 | MAP2K2 = 0 | MAP4K2 = 0

CC1CN(C(=O)Nc2ccc(Cl)c(Cl)c2)C(=Nc2ccc(F)cc2)S1 (stereo not given) (10 µM)
inactive: IRAK3 = 0 | JAK1 = 0 | LCK 0 | LIMK1 = 0 | LIMK2 = 0 | LMTK2 = 0 | LYN 0 | MAP2K1 = 0 | MAP2K2 = 0 | MAP4K2 = 0

c1cc2c(cc1O[C@H]1OC[C@H]3[C@@H]1CO[C@@H]3c1ccc3c(c1)OCO3)OCO2 [Sesamolin] (10 µM)
inactive: IRAK3 = 0 | JAK1 = 0 | LCK 0 | LIMK1 = 0 | LIMK2 = 0 | LMTK2 = 0 | LYN 0 | MAP2K1 = 0 | MAP2K2 = 0 | MAP4K2 = 0

COc1cc2ncnc(Nc3cccc(Cl)c3)c2cc1OC (10 µM)
inactive: IRAK3 = 0 | JAK1 = 0 | LCK 0 | LIMK1 = 0 | LIMK2 = 0 | LMTK2 = 0 | LYN 0 | MAP2K1 = 0 | MAP2K2 = 0 | MAP4K2 = 0

Cc1ccc(Nc2cc(-c3cccc(N4C(=O)c5ccccc5C4=O)c3)ncn2)cc1NS(C)(=O)=O (10 µM)
inactive: IRAK3 = 0 | JAK1 = 0 | LCK 0 | LIMK1 = 0 | LIMK2 = 0 | LMTK2 = 0 | LYN 0 | MAP2K1 = 0 | MAP2K2 = 0 | MAP4K2 = 0

O=C(/C=C/c1ccc(O)c(O)c1)OC1CC(OC(=O)/C=C/c2ccc(O)c(O)c2)(C(=O)O)CC(O)C1O (stereo not given) [1,3-Dicaffeoylquinic acid] (10 µM)
inactive: IRAK3 = 0 | JAK1 = 0 | LCK 0 | LIMK1 = 0 | LIMK2 = 0 | LMTK2 = 0 | LYN 0 | MAP2K1 = 0 | MAP2K2 = 0 | MAP4K2 = 0

3 entries from above, sorted by number of heavy atoms, low to high:
COc1cc2ncnc(Nc3cccc(Cl)c3)c2cc1OC (10 µM)
inactive: IRAK3 = 0 | JAK1 = 0 | LCK 0 | LIMK1 = 0 | LIMK2 = 0 | LMTK2 = 0 | LYN 0 | MAP2K1 = 0 | MAP2K2 = 0 | MAP4K2 = 0

c1cc2c(cc1O[C@H]1OC[C@H]3[C@@H]1CO[C@@H]3c1ccc3c(c1)OCO3)OCO2 [Sesamolin] (10 µM)
inactive: IRAK3 = 0 | JAK1 = 0 | LCK 0 | LIMK1 = 0 | LIMK2 = 0 | LMTK2 = 0 | LYN 0 | MAP2K1 = 0 | MAP2K2 = 0 | MAP4K2 = 0

O=C(/C=C/c1ccc(O)c(O)c1)OC1CC(OC(=O)/C=C/c2ccc(O)c(O)c2)(C(=O)O)CC(O)C1O (stereo not given) [1,3-Dicaffeoylquinic acid] (10 µM)
inactive: IRAK3 = 0 | JAK1 = 0 | LCK 0 | LIMK1 = 0 | LIMK2 = 0 | LMTK2 = 0 | LYN 0 | MAP2K1 = 0 | MAP2K2 = 0 | MAP4K2 = 0

Following part

CC(C)NC(=O)N1CC[C@H](NC2=Nc3cc(F)ccc3N(CC(F)F)c3ccc(Cl)cc32)C1 (10 µM)
inactive: IRAK3 = 0 | JAK1 = 0 | LCK 0 | LIMK1 = 0 | LIMK2 = 0 | LMTK2 = 0 | LYN 0 | MAP2K1 = 0 | MAP2K2 = 0 | MAP4K2 = 0
